This is an account of results in paper PMC12514575.

By UniProt entry, the sequences of proteins in these tests, tags left out.
UniProt Q9NYV6: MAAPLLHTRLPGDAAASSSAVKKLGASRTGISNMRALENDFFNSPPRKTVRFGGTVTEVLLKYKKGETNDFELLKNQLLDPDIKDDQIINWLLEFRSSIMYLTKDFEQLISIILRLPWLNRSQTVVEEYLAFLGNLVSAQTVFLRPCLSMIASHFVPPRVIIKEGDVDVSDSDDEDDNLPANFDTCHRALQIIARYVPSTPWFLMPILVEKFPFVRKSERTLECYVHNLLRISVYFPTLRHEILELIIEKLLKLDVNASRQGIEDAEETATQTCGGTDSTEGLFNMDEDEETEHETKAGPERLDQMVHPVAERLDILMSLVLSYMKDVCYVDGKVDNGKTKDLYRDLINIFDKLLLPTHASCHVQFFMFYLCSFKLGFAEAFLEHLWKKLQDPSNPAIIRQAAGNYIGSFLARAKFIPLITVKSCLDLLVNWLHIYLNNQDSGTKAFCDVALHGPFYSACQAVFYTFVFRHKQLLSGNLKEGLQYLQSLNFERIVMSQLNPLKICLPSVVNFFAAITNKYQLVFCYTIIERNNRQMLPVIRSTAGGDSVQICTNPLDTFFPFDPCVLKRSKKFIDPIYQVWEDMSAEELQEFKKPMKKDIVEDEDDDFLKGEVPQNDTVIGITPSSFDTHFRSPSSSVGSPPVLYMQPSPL

This test concerns the target T1, FLAG-tagged WT full-length DCAF13 (DDB1- and CUL4-associated factor 13) (UniProt Q9NV06).
T1 sequence: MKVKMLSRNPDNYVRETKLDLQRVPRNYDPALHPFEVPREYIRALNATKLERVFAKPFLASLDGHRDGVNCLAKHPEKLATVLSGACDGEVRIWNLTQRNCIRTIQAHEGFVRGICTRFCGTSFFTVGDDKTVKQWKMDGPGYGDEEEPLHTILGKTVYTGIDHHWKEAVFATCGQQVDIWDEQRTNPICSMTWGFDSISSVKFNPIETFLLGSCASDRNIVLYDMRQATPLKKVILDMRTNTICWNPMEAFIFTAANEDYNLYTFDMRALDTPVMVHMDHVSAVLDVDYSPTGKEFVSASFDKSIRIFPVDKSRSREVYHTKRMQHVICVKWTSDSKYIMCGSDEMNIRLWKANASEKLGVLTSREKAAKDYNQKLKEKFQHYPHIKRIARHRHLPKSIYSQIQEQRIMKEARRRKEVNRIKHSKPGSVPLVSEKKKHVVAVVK
Kind of test: co-IP; lysate of 293T cells overexpressing FLAG-DCAF13 or FLAG-DCAF13^SOF1Δ; anti-FLAG or IgG on Protein A/G magnetic beads, overnight at 4 °C, six washes with PBS + 0.5% Tween-20; western blot. For orientation: A western blot detects proteins with antibodies after separation by electrophoresis.

These are yes or no findings as the source states them, for the method shown. In cells and extracts the contact can be indirect. Some entries that bind do so weakly or less than the wild type. Sequences can lack the tags named with a protein.

For TIF-IA (from UniProt Q9NYV6 1-651), the binding entry is “no binding”.

B1: TAF1A, a subunit of selective factor 1 (SL1) (protein, UniProt Q15573 1-450)
chain: MSDFSEELKGPVTDDEEVETSVLSGAGMHFPWLQTYVETVAIGGKRRKDFAQTTSACLSFIQEALLKHQWQQAAEYMYSYFQTLEDSDSYKRQAAPEIIWKLGSEILFYHPKSNMESFNTFANRMKNIGVMNYLKISLQHALYLLHHGMLKDAKRNLSEAETWRHGENTSSREILINLIQAYKGLLQYYTWSEKKMELSKLDKDDYAYNAVAQDVFNHSWKTSANISALIKIPGVWDPFVKSYVEMLEFYGDRDGAQEVLTNYAYDEKFPSNPNAHIYLYNFLKRQKAPRSKLISVLKILYQIVPSHKLMLEFHTLLRKSEKEEHRKLGLEVLFGVLDFAGCTKNITAWKYLAKYLKNILMGNHLAWVQEEWNSRKNWWPGFHFSYFWAKSDWKEDTALACEKAFVAGLLLGKGCRYFRYILKQDHQILGKKIKRMKRSVKKYSIVNPRL
For B1, the binding result is “binds”.
